Earlier results, collected in patent US11700853B2, “Plant health compositions comprising a water-soluble pesticide and a water-insoluble agrochemical” (priority 2010, dated 2023).
At least one compound was matched to its structure with a doubt left.

Conditions: cited from earlier work

Structure (SMILES) | octanol-water partition coefficient (KOW) [log10P]
COC(=O)COc1nc(F)c(Cl)c(N)c1Cl [fluroxypyr-methyl] | 4.53
CCOC(=O)C(C)Oc1ccc(Oc2ncc(C(F)(F)F)cc2Cl)cc1 (stereo not drawn) [haloxyfop-ethyl] | 4.33
C[C@@H](Oc1ccc(Oc2cnc3cc(Cl)ccc3n2)cc1)C(=O)OCC1CCCO1 (stereo partly drawn) [quizalofop-P-terfuryl] | 4.32
